Common to all, as to test: affinity purification with mass spectrometry; soluble fraction of 1x10^8 sonicated T. brucei cells with the tagged bait in IP buffer (150 mM NaCl, 0.5% IGEPAL CA-630, 20 mM Tris-HCl pH 8.0, 10 mM MgCl2, 1 mM DTT) on Protein G Sepharose beads coupled to anti-HA 12CA5 or anti-Ty1 BB2, 3 h at 4°C; eluates by label-free quantitative MS, four biological replicates against a WT control

By UniProt entry, the sequences of proteins in these tests, tags left out. Where a name states a change or a piece, a line headed by the entry shows the natural chain unless it says otherwise.
UniProt Q385I5: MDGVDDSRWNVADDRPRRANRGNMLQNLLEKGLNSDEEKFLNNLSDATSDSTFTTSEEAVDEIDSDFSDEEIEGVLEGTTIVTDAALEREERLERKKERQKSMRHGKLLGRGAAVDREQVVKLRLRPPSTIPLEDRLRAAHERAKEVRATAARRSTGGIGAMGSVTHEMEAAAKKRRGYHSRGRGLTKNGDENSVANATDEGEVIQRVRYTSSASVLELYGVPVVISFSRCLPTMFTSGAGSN
UniProt Q38FN2: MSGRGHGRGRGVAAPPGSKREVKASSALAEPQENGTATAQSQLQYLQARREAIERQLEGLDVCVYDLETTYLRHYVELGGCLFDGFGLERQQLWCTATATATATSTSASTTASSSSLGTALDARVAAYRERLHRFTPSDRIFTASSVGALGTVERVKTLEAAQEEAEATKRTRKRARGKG
UniProt Q583J3: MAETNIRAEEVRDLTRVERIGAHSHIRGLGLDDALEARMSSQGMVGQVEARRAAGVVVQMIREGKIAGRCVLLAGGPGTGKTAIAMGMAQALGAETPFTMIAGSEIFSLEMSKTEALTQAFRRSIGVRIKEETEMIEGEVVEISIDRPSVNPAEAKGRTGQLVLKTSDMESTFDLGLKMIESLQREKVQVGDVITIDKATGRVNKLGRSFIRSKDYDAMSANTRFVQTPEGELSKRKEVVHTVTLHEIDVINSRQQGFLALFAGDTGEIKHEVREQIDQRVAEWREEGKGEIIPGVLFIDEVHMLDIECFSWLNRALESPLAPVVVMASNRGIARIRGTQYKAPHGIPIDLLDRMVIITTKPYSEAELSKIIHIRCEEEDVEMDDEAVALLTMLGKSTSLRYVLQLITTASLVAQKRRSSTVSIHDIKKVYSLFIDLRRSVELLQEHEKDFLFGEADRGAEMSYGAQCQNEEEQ
UniProt Q383S2: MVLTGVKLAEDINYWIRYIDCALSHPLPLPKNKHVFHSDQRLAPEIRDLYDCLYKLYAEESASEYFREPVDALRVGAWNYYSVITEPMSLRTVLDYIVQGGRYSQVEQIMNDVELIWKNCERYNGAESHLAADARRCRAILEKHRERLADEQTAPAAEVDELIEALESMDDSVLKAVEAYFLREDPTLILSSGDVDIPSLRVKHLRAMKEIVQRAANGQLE
UniProt D6XIY7: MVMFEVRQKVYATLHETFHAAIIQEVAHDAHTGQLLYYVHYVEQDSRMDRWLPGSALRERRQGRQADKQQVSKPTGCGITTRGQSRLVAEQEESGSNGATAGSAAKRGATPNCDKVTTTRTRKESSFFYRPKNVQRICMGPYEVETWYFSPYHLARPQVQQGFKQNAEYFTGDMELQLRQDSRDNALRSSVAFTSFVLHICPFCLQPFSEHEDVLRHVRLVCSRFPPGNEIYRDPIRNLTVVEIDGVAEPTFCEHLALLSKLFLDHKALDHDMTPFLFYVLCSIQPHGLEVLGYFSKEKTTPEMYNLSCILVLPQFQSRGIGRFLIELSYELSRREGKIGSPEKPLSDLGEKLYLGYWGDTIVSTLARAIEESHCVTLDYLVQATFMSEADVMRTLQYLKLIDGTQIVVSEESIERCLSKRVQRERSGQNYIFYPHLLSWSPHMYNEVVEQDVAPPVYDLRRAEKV
UniProt Q585C3: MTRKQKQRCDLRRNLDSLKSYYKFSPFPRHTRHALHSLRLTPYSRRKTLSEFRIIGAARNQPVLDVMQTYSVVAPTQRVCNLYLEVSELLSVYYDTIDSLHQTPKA
UniProt Q389Y3: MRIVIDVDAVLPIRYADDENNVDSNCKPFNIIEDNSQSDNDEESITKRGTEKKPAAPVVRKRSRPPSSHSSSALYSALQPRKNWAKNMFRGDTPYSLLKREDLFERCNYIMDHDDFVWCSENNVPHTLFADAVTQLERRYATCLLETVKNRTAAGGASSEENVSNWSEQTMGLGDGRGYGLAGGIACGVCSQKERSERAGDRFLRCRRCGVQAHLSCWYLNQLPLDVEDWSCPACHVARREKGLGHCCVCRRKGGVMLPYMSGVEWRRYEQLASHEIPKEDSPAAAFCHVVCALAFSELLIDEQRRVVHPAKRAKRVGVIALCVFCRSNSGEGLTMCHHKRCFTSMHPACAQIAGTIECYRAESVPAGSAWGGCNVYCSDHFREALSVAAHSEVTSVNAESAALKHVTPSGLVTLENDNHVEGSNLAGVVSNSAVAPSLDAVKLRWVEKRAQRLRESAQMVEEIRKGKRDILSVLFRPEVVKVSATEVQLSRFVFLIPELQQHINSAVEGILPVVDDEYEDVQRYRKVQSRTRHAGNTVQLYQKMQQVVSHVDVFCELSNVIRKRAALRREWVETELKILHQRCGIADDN
UniProt Q388I3: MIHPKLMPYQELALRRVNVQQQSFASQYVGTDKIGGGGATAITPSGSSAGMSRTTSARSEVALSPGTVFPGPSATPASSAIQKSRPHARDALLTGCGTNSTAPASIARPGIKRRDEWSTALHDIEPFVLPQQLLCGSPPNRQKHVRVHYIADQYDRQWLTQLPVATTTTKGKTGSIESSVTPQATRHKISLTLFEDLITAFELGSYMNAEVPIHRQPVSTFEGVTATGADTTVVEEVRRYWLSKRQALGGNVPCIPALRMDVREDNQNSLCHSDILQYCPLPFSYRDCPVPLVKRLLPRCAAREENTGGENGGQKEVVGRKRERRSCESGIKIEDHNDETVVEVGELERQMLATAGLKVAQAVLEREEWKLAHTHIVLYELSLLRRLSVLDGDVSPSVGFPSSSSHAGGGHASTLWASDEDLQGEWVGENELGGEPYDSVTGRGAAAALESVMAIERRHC
UniProt Q57ZL0: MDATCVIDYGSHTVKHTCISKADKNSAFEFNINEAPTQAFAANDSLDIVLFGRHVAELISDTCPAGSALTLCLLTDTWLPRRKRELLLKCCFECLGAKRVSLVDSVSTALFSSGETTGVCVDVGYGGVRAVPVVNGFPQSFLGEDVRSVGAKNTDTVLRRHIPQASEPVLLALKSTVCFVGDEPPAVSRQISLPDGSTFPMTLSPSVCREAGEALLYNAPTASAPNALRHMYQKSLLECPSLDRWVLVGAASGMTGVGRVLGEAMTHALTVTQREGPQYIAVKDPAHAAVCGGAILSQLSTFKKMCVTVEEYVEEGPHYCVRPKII
UniProt Q584P9: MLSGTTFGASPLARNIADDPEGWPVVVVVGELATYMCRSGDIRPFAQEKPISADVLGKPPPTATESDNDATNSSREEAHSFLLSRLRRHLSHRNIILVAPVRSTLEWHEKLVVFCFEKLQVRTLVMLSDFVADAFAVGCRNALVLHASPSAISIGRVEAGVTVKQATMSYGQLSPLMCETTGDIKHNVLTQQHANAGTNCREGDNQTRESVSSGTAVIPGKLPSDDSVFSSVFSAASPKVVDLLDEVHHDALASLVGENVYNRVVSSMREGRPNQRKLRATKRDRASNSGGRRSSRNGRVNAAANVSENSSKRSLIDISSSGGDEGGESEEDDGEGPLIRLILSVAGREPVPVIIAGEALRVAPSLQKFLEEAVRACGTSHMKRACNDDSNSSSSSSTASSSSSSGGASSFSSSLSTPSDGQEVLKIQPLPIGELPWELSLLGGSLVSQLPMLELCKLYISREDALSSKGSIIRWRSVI
UniProt Q38C43: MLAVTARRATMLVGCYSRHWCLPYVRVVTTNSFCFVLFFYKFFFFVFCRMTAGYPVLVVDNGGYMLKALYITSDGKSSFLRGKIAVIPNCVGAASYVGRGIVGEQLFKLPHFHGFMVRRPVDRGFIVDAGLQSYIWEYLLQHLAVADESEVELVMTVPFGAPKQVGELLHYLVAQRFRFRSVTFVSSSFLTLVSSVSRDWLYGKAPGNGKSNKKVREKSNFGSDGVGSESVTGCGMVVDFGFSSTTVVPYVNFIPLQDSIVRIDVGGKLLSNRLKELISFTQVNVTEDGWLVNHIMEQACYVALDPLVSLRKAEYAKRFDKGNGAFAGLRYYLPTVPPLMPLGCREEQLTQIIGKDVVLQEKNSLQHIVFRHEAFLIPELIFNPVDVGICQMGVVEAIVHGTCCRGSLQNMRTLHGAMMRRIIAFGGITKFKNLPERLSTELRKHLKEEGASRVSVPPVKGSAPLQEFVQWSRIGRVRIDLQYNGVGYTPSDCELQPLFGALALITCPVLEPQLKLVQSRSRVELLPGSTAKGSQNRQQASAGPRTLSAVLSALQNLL
UniProt Q383K6: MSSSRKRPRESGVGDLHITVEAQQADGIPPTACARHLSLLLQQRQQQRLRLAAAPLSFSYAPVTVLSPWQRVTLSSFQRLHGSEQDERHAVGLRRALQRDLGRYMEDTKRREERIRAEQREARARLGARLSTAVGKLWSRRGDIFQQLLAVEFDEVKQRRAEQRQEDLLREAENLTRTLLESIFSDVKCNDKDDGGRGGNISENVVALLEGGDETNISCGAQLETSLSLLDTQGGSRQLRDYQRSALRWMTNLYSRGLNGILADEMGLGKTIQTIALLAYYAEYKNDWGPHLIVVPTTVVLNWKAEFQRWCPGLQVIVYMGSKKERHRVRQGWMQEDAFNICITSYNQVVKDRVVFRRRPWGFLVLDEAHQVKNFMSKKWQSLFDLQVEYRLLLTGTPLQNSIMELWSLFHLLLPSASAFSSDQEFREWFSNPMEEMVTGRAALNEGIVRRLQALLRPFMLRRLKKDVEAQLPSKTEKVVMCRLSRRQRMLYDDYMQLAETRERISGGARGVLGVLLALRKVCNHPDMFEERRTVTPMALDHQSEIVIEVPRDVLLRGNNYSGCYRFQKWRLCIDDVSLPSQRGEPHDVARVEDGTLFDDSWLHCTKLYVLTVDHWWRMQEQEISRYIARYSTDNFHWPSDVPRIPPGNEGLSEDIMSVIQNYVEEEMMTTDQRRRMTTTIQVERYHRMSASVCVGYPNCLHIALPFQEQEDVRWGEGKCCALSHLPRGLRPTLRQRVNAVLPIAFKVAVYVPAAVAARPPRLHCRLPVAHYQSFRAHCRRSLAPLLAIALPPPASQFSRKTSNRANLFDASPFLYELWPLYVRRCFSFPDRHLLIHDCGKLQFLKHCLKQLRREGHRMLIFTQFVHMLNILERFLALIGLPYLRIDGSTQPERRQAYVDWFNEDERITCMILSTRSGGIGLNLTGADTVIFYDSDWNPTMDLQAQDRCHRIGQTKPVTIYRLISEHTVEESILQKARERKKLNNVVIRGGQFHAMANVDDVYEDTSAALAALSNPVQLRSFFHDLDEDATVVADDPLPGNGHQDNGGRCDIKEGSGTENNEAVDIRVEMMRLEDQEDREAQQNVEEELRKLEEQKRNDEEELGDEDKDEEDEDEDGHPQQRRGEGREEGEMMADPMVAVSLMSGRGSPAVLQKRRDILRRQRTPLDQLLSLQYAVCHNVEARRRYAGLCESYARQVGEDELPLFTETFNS
UniProt Q38EC0: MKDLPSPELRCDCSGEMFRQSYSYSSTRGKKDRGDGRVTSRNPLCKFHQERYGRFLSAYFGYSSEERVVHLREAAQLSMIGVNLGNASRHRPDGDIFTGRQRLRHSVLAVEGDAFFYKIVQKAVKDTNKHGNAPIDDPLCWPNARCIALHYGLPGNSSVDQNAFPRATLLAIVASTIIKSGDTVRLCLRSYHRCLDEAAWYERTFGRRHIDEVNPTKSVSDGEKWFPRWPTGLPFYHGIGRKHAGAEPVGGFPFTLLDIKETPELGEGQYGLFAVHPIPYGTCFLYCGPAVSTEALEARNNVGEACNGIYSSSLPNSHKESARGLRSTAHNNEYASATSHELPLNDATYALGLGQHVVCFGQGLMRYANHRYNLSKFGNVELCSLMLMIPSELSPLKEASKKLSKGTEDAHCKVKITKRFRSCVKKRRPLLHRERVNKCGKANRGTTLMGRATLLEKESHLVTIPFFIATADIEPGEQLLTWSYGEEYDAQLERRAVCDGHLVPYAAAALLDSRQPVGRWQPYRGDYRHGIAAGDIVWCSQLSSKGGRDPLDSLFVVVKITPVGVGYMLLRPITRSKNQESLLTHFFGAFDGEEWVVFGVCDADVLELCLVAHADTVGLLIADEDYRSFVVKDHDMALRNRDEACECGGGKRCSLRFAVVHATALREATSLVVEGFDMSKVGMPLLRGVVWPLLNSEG
UniProt Q57YH0: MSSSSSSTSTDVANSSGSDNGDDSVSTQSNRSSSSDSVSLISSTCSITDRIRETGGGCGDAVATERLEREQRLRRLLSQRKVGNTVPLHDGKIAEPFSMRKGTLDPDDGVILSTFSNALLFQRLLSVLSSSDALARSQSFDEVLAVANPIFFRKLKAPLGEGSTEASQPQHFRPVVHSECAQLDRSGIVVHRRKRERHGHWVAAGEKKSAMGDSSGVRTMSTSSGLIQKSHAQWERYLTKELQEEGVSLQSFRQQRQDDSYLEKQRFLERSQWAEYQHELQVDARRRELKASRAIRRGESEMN
UniProt Q385E0: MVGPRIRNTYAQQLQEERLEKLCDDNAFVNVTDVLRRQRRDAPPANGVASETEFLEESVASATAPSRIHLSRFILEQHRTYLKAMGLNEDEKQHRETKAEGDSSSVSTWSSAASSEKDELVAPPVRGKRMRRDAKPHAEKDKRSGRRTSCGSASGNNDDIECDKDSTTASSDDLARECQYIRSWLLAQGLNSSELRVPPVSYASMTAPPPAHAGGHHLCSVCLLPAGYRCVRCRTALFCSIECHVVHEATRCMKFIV

In assay [1] the target is HA-TbSWRC2 (Tb927.11.5830) (Trypanosoma brucei) (UniProt Q385I5).
In assay [2] the target is TbSWRC4-HA (Tb927.7.4040) (Trypanosoma brucei) (UniProt Q57UN4).
Assay [3] deals with HA-HAT2 (Tb927.11.11530) (Trypanosoma brucei) (UniProt Q383C5).
The target of assay [4] is T1, tagged Tb927.1.650 (Eaf3/MORF4 homologue), bait of the reciprocal co-IP (Trypanosoma brucei) (UniProt Q4GZG2).
T1 sequence: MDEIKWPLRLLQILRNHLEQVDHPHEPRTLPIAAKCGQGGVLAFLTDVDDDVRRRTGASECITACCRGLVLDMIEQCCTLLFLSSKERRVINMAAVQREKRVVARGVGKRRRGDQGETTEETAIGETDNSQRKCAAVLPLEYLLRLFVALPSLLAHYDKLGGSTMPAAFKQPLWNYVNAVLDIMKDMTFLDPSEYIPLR

In assay [5] the target is tagged Tb927.9.2910 (annotated as a NuA4 subunit), bait of the co-IP (Trypanosoma brucei) (UniProt Q38FN2).
Assay [6] has as its target HA-tagged RuvB2 (Tb927.4.2000) (Trypanosoma brucei) (UniProt Q583J3).
In assay [7] the target is tagged Tb927.9.2910 (annotated as a NuA4 subunit), bait of the co-IP (Trypanosoma brucei) (UniProt Q38FN2). This is another data set of the same source.

Where two headings read alike, the source gives them in different places. These are yes or no findings as the source states them, for the method shown. Binding seen in cells or lysates may run through a third protein. A yes stands for co-enrichment or nearness to the bait. Other partners may have been found. For some of these results: No binding means not detected with the bait. For some of these results: Sequences can lack the tags named with a protein.

Take “Actin (Tb927.4.980) (from UniProt Q580C6)”: the binding entry in assay [1] and in assay [2] was “binds” each time.
For the molecule “Bdf3 (Tb927.11.10070) (from UniProt Q383S2)”, the binding result in assay [3] was “binds”.
“HAT1 (Tb927.7.4560) (from UniProt D6XIY7) (enzyme)”: the binding result in assay [4] and in assay [5] was “binds” throughout.
In the case of HAT3 (from UniProt Q38AD3) (enzyme), the binding result was “no binding” in assay [4] and “binds” in assay [5].
Regarding “RuvB1 (Tb927.4.1270) (from UniProt Q581V4)”, the binding entry in assay [1] and in assay [2] was “binds” throughout.
On to Tb927.3.4140 (from UniProt Q580M8), for which the binding result in assay [3] was “binds”.
With Tb927.6.1240 (from UniProt Q585C3), the figures for the binding result in assay [4] and in assay [5] were “no binding” and “binds”, respectively.
Taken in the same sequence, the figures for “Tb927.7.5310 (a Yaf9/GAS41 homologue) (from UniProt Q57ZF8)” were “binds” and “binds”.
Taken in the same sequence, the figures for Tb927.10.9930 (from UniProt Q389Y3) were “no binding” and “binds”.
The corresponding values for “Tb927.10.14190 (a homologue of Epl1) (from UniProt Q388I3)” are “binds” and “binds”.
With “TbARP1 (Tb927.3.3020) (from UniProt Q57ZL0)”, the binding entry in assay [1], in assay [6] and in assay [2] was “binds” in each case.
As for “TbARP2 (Tb927.6.2570) (from UniProt Q584P9)”, the binding entry in assay [1], in assay [6] and in assay [2] was “binds” each time.
Regarding “TbARP3 (Tb927.10.2000) (from UniProt Q38C43)”, the binding result in assay [1], in assay [6] and in assay [2] was “binds” in each case.
With “TbSWR1 (Tb927.11.10730) (from UniProt Q383K6) (enzyme)”, the binding entry in assay [1], in assay [6] and in assay [2] was “binds” throughout.
With “TbSWRC2 (Tb927.11.5830) (from UniProt Q385I5)”, the binding entry in assay [6] and in assay [2] was “binds” throughout.
Consider “TbSWRC3 (Tb927.9.8510) (from UniProt Q38EC0)”, for which the binding result in assay [1] and in assay [2] was “binds” throughout.
Turning to “TbSWRC4 (Tb927.7.4040) (from UniProt Q57UN4)”, the binding result in assay [1] and in assay [6] was “binds” in each case.
“TbSWRC5 (Tb927.8.600) (from UniProt Q57YH0)”: the binding result in assay [1], in assay [6] and in assay [2] was “binds” in each case.
With “TbSWRC6 (Tb927.11.6290) (from UniProt Q385E0)”, the binding entry in assay [1], in assay [6] and in assay [2] was “binds” throughout.

B1: Tb927.1.650 (an Eaf3/MORF4 homologue) (protein, UniProt Q4GZG2 1-199)
chain: MDEIKWPLRLLQILRNHLEQVDHPHEPRTLPIAAKCGQGGVLAFLTDVDDDVRRRTGASECITACCRGLVLDMIEQCCTLLFLSSKERRVINMAAVQREKRVVARGVGKRRRGDQGETTEETAIGETDNSQRKCAAVLPLEYLLRLFVALPSLLAHYDKLGGSTMPAAFKQPLWNYVNAVLDIMKDMTFLDPSEYIPLR
As to B1, the binding entry in assay [7] was “binds”.

These data come from article PMC9236257.
